Where two headings read alike, the source gives them in different places. No constants are given. Whether binding was seen depends on the method and setting. Binding calls can cover weak binding; strength is not graded here. Tags and fused reporters may be left off the sequences shown.
Experiments:
Assay in all cases: native gel or EMSA
[1] = target: T1, FLAG-tagged Oct1 (Pou2f1) (UniProt P25425)
T1 sequence: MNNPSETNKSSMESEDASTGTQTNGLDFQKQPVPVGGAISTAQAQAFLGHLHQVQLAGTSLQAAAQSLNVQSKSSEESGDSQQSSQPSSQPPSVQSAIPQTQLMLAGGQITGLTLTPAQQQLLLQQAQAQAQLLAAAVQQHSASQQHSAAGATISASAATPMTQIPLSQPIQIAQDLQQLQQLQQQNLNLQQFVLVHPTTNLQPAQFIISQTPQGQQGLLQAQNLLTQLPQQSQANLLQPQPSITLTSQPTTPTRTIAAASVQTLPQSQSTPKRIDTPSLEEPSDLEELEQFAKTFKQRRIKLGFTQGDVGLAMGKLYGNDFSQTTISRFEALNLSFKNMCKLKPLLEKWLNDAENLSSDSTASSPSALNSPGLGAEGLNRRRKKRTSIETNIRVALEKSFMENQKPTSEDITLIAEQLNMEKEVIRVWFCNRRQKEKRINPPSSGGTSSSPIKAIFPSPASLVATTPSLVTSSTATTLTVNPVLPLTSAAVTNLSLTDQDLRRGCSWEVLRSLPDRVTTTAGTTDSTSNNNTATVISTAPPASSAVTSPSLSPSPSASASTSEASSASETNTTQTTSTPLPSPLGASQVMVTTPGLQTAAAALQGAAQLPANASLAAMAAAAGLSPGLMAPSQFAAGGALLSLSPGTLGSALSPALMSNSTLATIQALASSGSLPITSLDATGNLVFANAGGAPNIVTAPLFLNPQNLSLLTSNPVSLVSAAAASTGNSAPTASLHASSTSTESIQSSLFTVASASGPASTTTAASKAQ

FLAG-tagged Brn4 [2] = target: T2, FLAG-tagged Brn4 (UniProt P62515)
T2 sequence: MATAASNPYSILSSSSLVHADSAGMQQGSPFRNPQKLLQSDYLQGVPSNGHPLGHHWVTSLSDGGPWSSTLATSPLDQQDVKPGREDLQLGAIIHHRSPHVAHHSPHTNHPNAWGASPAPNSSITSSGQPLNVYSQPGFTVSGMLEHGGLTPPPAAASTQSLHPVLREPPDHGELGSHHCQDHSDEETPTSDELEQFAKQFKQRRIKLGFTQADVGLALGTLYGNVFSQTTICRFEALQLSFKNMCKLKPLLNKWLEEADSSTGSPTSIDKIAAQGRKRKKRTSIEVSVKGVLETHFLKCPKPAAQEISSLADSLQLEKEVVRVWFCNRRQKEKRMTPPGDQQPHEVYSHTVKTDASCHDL

[3] = target: T3, FLAG-tagged Oct6 (Pou3f1) (UniProt P21952)
T3 sequence: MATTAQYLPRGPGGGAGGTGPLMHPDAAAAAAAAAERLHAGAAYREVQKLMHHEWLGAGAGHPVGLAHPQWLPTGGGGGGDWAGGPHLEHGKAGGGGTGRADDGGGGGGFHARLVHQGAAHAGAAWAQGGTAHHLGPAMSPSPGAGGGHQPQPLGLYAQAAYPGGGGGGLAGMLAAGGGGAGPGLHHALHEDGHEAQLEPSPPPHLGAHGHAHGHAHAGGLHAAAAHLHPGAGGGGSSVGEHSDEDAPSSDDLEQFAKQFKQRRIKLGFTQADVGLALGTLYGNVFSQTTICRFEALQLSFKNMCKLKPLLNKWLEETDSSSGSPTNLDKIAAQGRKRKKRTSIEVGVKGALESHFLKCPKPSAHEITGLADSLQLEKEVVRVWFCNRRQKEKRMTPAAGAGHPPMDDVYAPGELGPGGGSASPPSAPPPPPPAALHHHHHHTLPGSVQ

FLAG-tagged Brn4 [4] = target: T2, FLAG-tagged Brn4; remark: listed apart in the source

binding [1]: binds
binding (FLAG-tagged Brn4 [2]): binds
binding [3]: binds
binding (FLAG-tagged Brn4 [4]): binds
Substance: Sox2^A61V, overexpressed in HEK293 (mouse)

Source: paper doi:10.1101/2022.09.23.509242
